PMC6877959 (Oxidative Medicine and Cellular Longevity, 2019)
Strings that start with PEPTIDE1 are HELM notation: dots part the residues, brackets hold end groups and non-standard residues.

Experiment: general procedure: Fmoc solid-phase peptide synthesis; Wang resin; HBTU/HOAt/DIEA
Details: whole synthesis, 214 nm, scale of the general procedure 0.150 g resin, 0.69 mmol/g

**Q.** For PEPTIDE1{S.F.N.P.T.Q.L}$$$$V2.0, which “final HPLC purity” value is on record?
**A.** The value was over 98%.
